Reference: paper PMC4512008
Results are given in words; binding and its absence hold for the method and conditions named. Binding seen in cells or lysates may run through a third protein. Some results given as binding are weak or reduced against the parent protein; the word gives no strength.

Amino acid sequences for entries named in this document (tags omitted).
UniProt P42337: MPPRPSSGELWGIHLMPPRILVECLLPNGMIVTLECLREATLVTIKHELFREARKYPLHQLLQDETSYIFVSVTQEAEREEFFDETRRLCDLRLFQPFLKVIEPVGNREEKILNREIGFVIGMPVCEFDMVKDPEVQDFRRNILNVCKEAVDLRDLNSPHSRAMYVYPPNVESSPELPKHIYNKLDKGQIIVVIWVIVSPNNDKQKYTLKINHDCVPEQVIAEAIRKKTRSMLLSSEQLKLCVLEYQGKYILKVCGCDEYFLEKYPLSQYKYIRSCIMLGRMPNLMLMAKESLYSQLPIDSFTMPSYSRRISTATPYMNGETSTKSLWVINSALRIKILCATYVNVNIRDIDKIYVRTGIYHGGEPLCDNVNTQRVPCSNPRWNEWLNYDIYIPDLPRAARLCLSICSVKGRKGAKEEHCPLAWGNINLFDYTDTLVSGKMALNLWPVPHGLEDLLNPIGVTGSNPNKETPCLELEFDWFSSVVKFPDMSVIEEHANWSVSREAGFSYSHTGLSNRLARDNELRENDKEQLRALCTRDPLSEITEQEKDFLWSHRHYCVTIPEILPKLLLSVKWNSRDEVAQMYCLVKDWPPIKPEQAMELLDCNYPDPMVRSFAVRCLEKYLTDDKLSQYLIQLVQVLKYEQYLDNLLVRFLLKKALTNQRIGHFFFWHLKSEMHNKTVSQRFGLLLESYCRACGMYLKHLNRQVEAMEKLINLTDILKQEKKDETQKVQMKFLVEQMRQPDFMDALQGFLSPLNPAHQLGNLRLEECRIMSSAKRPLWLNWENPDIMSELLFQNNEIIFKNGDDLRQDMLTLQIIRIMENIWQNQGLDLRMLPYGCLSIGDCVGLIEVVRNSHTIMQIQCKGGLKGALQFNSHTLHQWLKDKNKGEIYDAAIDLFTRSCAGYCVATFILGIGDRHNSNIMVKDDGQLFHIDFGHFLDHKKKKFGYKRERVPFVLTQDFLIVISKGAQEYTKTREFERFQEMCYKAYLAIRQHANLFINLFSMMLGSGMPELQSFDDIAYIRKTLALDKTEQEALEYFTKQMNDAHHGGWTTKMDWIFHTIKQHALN

Target: T1, IRGM1 (UniProt Q60766)
T1 sequence: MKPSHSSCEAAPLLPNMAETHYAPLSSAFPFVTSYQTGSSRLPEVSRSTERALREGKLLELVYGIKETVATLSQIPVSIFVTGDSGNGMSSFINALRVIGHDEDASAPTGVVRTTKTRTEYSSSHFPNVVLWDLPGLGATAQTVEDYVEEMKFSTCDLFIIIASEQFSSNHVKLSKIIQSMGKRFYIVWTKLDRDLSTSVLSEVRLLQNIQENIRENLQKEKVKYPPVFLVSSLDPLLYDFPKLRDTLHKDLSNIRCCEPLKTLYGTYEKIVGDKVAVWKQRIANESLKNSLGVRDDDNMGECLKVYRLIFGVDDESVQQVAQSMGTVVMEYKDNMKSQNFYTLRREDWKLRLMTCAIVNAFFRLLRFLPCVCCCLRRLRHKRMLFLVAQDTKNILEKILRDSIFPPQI
Test: co-IP; total B16 cell lysates incubated with anti-IRGM1 polyclonal antibody (AbMart) at 4 °C overnight, captured on Protein A/G agarose beads; PIK3CA detected by blot; non-immune IgG as control

binding: binds
Substance: PIK3CA (from UniProt P42337 1-1068)
